# Experimental data reported in PubChem BioAssay AID445 (National Center for Advancing Translational Sciences (NCATS), 2006).
# Several values for one entry are separate records, joined by “and”; a condition that tells them apart may be missing. Equal entries are not always repeated. Some of the results follow. Further columns of the screen follow, without active or inactive calls. The list favours compounds with an active or inconclusive main result. Potencies come from curve fits of mixed quality, noted in brackets.
# Assay: IkB Signaling
# Settings: ABC-DLBCL IkBa-CBG/CBR dual luciferase ratio (green luciferase fused to IkBa over red control in OCI-Ly3 lymphoma cells), 4 h
# Outline: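 Luminescence ratio of IκBα-fused green versus native red beetle luciferase in OCI-Ly3 cells, 4 h post-doxycycline with compound; red signal alone, scaled from basal (0%) to zero light (-100%), flagged nonspecific or cytotoxic effects.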
# [1] = measured here: control luc red channel
# [2] = measured here: IkB-luc green channel
smiles,measurement,setting,value
COc1cccc2c1C(=O)c1c(O)c3c(c(O)c1C2=O)C[C@](O)(/C(C)=N\O)C[C@@H]3O[C@H]1C[C@H](N)[C@@H](O)[C@H](C)O1,AC50,[1],"3.16 µM [falling, partial curve]"
O=c1c2ccccc2[se]n1-c1ccccc1,AC50,[2],"7.94 µM [rising, partial curve] and 15.8 µM [rising, partial curve]"
same,AC50,[1],"25.1 µM [falling, partial curve] and 5.01 µM [falling, partial curve]"
C/C=C(\C)C(=O)O[C@@H]1C(C)=C2[C@H]([C@@H]1OC(=O)CCCCCCC)[C@@](C)(OC(C)=O)C[C@@H](OC(=O)CCC)[C@@]1(O)[C@H]2OC(=O)[C@]1(C)O,AC50,[2],"0.0631 µM [rising, full curve]"
CCn1nc(-c2cccs2)nc2c(=O)n(C)c(=O)nc1-2,AC50,[2],"3.98 µM [rising, partial curve]"
same,AC50,[1],"10 µM [falling, partial curve]"
CN1CCN(c2ccc(NC(=O)C(C)(C)C)cc2)CC1,AC50,[1],"15.8 µM [falling, partial curve]"
Cc1cccc(-n2c(/C=C/c3cn(C)c4ccccc34)nc3ccccc3c2=O)c1,AC50,[1],"3.16 µM [falling, full curve]"
Cc1cc(NC(=O)c2cccn(Cc3cccc(Cl)c3)c2=O)no1,AC50,[1],"0.251 µM [falling, full curve, poor fit]"
O=C1CN=C(c2ccccc2)c2oc3ccc(Br)cc3c2N1,AC50,[1],"3.98 µM [rising, single point]"
CCCCCn1c(N)c(C(=O)NCCN2CCOCC2)c2nc3ccccc3nc21,AC50,[1],"39.8 µM [falling, single point]"
O=C(COc1cccc(Cl)c1)N1CCN(CCc2ccncc2)CC1,AC50,[1],"10 µM [falling, partial curve]"
CN(C)c1ccc(N=O)cc1,AC50,[2],"3.16 µM [rising, full curve]"
same,AC50,[1],"3.16 µM [falling, full curve]"
Cc1ccc(Cn2cccc(C(=O)Nc3cc([N+](=O)[O-])ccc3C)c2=O)cc1,AC50,[1],"3.16 µM [rising, full curve]"
C[C@@H]1O[C@H](O[C@H]2C[C@@H](O)[C@@]3(CO)[C@H]4[C@@H](O)C[C@]5(C)[C@@H](C6=CC(=O)OC6)CC[C@]5(O)[C@H]4CC[C@]3(O)C2)[C@@H](O)[C@H](O)[C@@H]1O,AC50,[1],"0.631 µM [falling, full curve, poor fit]"
COC(=O)c1c(C)n(Cc2ccc3c(c2)OCO3)c2ccc(O)cc12,AC50,[1],"10 µM [falling, partial curve]"
O=C(COc1ccccc1Cl)N1CCN(CCc2ccncc2)CC1,AC50,[1],"1.26 µM [falling, partial curve]"
O=C(CCc1nc(C2=CCN(Cc3cccc(Cl)c3)CC2)no1)Nc1ccccc1F,AC50,[1],"1 µM [falling, partial curve, poor fit]"
Cc1ccc(N2C(=O)NC(=O)C3(Cc4ccccc4N4CCN(c5ccccc5)CC43)C2=O)cc1 (centres undefined),AC50,[1],"1.26 µM [falling, full curve]"
c1ccc(CCCN2CCN(CCOC(c3ccccc3)c3ccccc3)CC2)cc1,AC50,[1],"31.6 µM [falling, partial curve]"
O=c1c2ccccc2nc(/C=C\c2ccc(F)cc2)n1-c1ccccc1F,AC50,[1],"10 µM [falling, partial curve]"
Cc1cccc(NC(=O)Cn2cc(C(=O)c3ccccc3)c3ccccc32)c1,AC50,[1],"25.1 µM [falling, single point]"
O=C(O)[C@H]1[C@H](C(=O)O)[C@H]2CC[C@@H]1O2,AC50,[2],"31.6 µM [rising, partial curve, poor fit]"
CC[n+]1c(-c2ccccc2)c2cc(N)ccc2c2ccc(N)cc21,AC50,[1],"0.501 µM [falling, full curve, poor fit]"
COc1ccc(Cl)cc1NC(=O)CN1C(=O)CN=C(c2ccccc2)c2cc(Cl)ccc21,AC50,[1],"20 µM [falling, single point]"
O=c1c2ccccc2nc(/C=C/c2cccc3ccccc23)n1-c1ccccc1Cl,AC50,[1],"10 µM [falling, partial curve]"
Fc1ccc2c(c1)nnn2C1CCN(Cc2nnnn2CCc2ccccc2)CC1,AC50,[1],"25.1 µM [falling, single point]"
C(=C/c1ccccc1)/CN1CCN(CCOC(c2ccccc2)c2ccccc2)CC1,AC50,[1],"31.6 µM [falling, partial curve]"
COc1ccc2[nH]cc(C3=CCNCC3)c2c1,AC50,[1],"31.6 µM [falling, partial curve]"
Cc1ccc(-n2c(/C=C/c3ccc(Br)s3)nc3ccccc3c2=O)cc1,AC50,[1],"25.1 µM [falling, partial curve]"
Cc1cccc(-n2c(/C=C/c3ccccc3O)nc3ccccc3c2=O)c1,AC50,[1],"15.8 µM [falling, partial curve]"
CC1=C(O)C(=O)[C@H]2O[C@@H]2C1=O,AC50,[2],"15.8 µM [rising, partial curve]"
same,AC50,[1],"3.98 µM [rising, full curve]"
O=c1c2ccccc2nc(/C=C\c2ccccc2F)n1-c1ccc(O)cc1,AC50,[1],"25.1 µM [falling, single point]"
Nc1c(C(=O)OCC2CCCO2)c2nc3ccccc3nc2n1Cc1cccs1 (centres undefined),AC50,[1],"25.1 µM [falling, partial curve]"
Cc1c(C(c2ccc(Cl)cc2Cl)c2c(O)c3ccccc3oc2=O)c(=O)n(-c2ccccc2)n1C (centres undefined),AC50,[1],"12.6 µM [falling, partial curve]"
COc1ccc(C(=O)Nc2ccc(Cl)cc2C(=O)c2ccccc2)c(OC)c1,AC50,[1],"12.6 µM [falling, partial curve]"
Cc1ccccc1CN1C(=O)CN=C(c2ccccc2)c2cc(Cl)ccc21,AC50,[1],"31.6 µM [falling, partial curve]"
Cc1nc2cc(-c3cccc(F)c3)nn2c(C)c1CCC(=O)N1CCC2(CC1)OCCO2,AC50,[1],"0.398 µM [falling, full curve]"
Cc1cc(-n2c(/C=C/c3ccc(Br)s3)nc3ccccc3c2=O)ccc1Br,AC50,[1],"20 µM [falling, partial curve]"
O=S(=O)(Cl)c1ccccc1,AC50,[2],"39.8 µM [rising, partial curve]"
CC[C@H]1CN2CCc3cc(OC)c(OC)cc3[C@H]2C[C@@H]1C[C@H]1NCCc2c1[nH]c1ccc(O)cc21,AC50,[1],"0.0631 µM [falling, full curve]"
COc1ccc(NC(=O)CN2C(=O)C(C)N=C(c3ccccc3F)c3cc(Cl)ccc32)c(OC)c1 (centres undefined),AC50,[1],"39.8 µM [falling, single point]"
CCCNC(=O)c1c(N)n(CC2CCCO2)c2nc3ccccc3nc12 (centres undefined),AC50,[1],"25.1 µM [falling, partial curve]"
CCCCCCCCCCCC[N+](C)(C)CCOc1ccccc1,AC50,[1],"39.8 µM [falling, partial curve, poor fit]"
CCCCCCCCn1sccc1=O,AC50,[2],"3.16 µM [rising, partial curve]"
same,AC50,[1],"15.8 µM [falling, full curve]"
CC(C)(c1ccc(OC[C@@H]2CO2)cc1)c1ccc(OC[C@H]2CO2)cc1,AC50,[1],"39.8 µM [falling, partial curve]"
COC(=O)C1=C(N)Oc2c(c(=O)oc3ccccc23)[C@]12C(=O)N(C)c1ccccc12,AC50,[1],"0.316 µM [falling, full curve]"
C[C@@H]1O[C@@H](O[C@H]2C[C@@H](O)[C@@]3(CO)[C@H]4[C@H](O)C[C@]5(C)[C@@H](C6=CC(=O)OC6)CC[C@]5(O)[C@H]4CC[C@@]3(O)C2)[C@@H](O)[C@H](O)[C@H]1O,AC50,[1],"0.251 µM [falling, full curve]"
Cc1ccc(-n2c(/C=C/c3ccc(Br)s3)nc3ccccc3c2=O)cc1C,AC50,[1],"25.1 µM [falling, single point]"
CC(=O)[O][Hg][c]1ccccc1,AC50,[1],"2 µM [falling, full curve]"
CCSc1cc(C2C(C#N)=C(N)Oc3n[nH]c(C)c32)c(C)o1 (centres undefined),AC50,[2],"25.1 µM [rising, partial curve]"
O=C(O)CN1CCN(CC(=O)O)CC(=O)[O][Hg][O]C(=O)C1,AC50,[2],"5.01 µM [rising, partial curve]"
Cc1c(C(c2ccc(F)cc2)c2c(O)c3ccccc3oc2=O)c(=O)n(-c2ccccc2)n1C (centres undefined),AC50,[1],"15.8 µM [falling, single point]"
O=C1CC(c2c(F)cccc2Cl)c2c(c3ccccc3oc2=O)O1 (centres undefined),AC50,[1],"0.00631 µM [falling, full curve, poor fit]"
COC(=O)CSC1=NP(=S)(SCC(=O)OC)N2CCCC2=C1C#N (centres undefined),AC50,[1],"12.6 µM [falling, partial curve]"
O=S1(=O)N(CCN2CC=C(c3c[nH]c4cc(F)ccc34)CC2)c2cccc3c2N1CCC3,AC50,[2],"10 µM [rising, partial curve]"
N#CC(C#N)=Cc1ccc([N+](=O)[O-])c(O)c1,AC50,[2],"5.01 µM [rising, partial curve, poor fit]"
O=C1CC(c2ccc(Br)cc2)c2c(c3ccccc3oc2=O)O1 (centres undefined),AC50,[2],"6.31 µM [rising, single point]"
O=C(CCCN1CCC2(CC1)C(=O)N(Cc1cccc(F)c1)CN2c1ccccc1)c1ccc(F)cc1,AC50,[1],"39.8 µM [falling, partial curve]"
O=C1CN(C(=O)CN2CCCCC2)C(c2ccccc2)c2cc(Br)ccc2N1 (centres undefined),AC50,[1],"20 µM [falling, single point]"
CN1[C@@H]2CC[C@H]1CC(OC(c1ccc(F)cc1)c1ccc(F)cc1)C2 (some centres undefined),AC50,[1],"31.6 µM [falling, partial curve]"

# Another view of part of the listing above.
smiles	measurement	setting	value
CCCCCCCCn1sccc1=O	AC50	[2]	3.16 µM [rising, partial curve]
same	AC50	[1]	15.8 µM [falling, full curve]
CC(C)(c1ccc(OC[C@@H]2CO2)cc1)c1ccc(OC[C@H]2CO2)cc1	AC50	[1]	39.8 µM [falling, partial curve]
COC(=O)C1=C(N)Oc2c(c(=O)oc3ccccc23)[C@]12C(=O)N(C)c1ccccc12	AC50	[1]	0.316 µM [falling, full curve]
C[C@@H]1O[C@@H](O[C@H]2C[C@@H](O)[C@@]3(CO)[C@H]4[C@H](O)C[C@]5(C)[C@@H](C6=CC(=O)OC6)CC[C@]5(O)[C@H]4CC[C@@]3(O)C2)[C@@H](O)[C@H](O)[C@H]1O	AC50	[1]	0.251 µM [falling, full curve]
Cc1ccc(-n2c(/C=C/c3ccc(Br)s3)nc3ccccc3c2=O)cc1C	AC50	[1]	25.1 µM [falling, single point]
CC(=O)[O][Hg][c]1ccccc1	AC50	[1]	2 µM [falling, full curve]
CCSc1cc(C2C(C#N)=C(N)Oc3n[nH]c(C)c32)c(C)o1 (centres undefined)	AC50	[2]	25.1 µM [rising, partial curve]
O=C(O)CN1CCN(CC(=O)O)CC(=O)[O][Hg][O]C(=O)C1	AC50	[2]	5.01 µM [rising, partial curve]
Cc1c(C(c2ccc(F)cc2)c2c(O)c3ccccc3oc2=O)c(=O)n(-c2ccccc2)n1C (centres undefined)	AC50	[1]	15.8 µM [falling, single point]
O=C1CC(c2c(F)cccc2Cl)c2c(c3ccccc3oc2=O)O1 (centres undefined)	AC50	[1]	0.00631 µM [falling, full curve, poor fit]
COC(=O)CSC1=NP(=S)(SCC(=O)OC)N2CCCC2=C1C#N (centres undefined)	AC50	[1]	12.6 µM [falling, partial curve]
